Laboratory results as given in the supplement of paper PMC10331698.
± gives the standard deviation of the averaged measurements. Most values lie at the level of the controls, where differences are scatter.

Tests used:
Experiment in all cases: level (log10 ratio to DMSO vehicle control); higher = higher biomarker level / cell amount than vehicle control
[1] = compound: C=C(C)C(=O)OCCC(F)(F)C(F)(F)C(F)(F)C(F)(F)C(F)(F)C(F)(F)F [6:2 Fluorotelomer methacrylate] (in DMSO); conditions: 2200 nM
Experimental: (§1)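 BioMAP Diversity Plus panel of 12 human primary cell co-culture systems (3C, 4H, LPS, SAg, BT, BF4T, BE3C, CASM3C, HDF3CGF, KF3CT, MyoF, Mphg). Compounds were added 1 h before stimulation and left for 24 h (MyoF 48 h; BT 72 h for soluble read-outs or 6 d for IgG). Biomarkers were read by ELISA, cytotoxicity by SRB, PBMC viability and proliferation by Alamar Blue. Each well value was divided by the mean of 8 DMSO control wells on the same plate and log10 transformed; duplicate blinded samples were tested at 4 concentrations.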

[2] = compound: CNS(=O)(=O)C(F)(F)C(F)(F)C(F)(F)C(F)(F)C(F)(F)C(F)(F)C(F)(F)C(F)(F)F [N-Methylperfluorooctanesulfonamide] (in DMSO); conditions: 2200 nM
Experimental: as §1

[3] = compound: FC(F)(F)C(F)(F)C(F)(F)C(F)(F)CCI [1H,1H,2H,2H-Perfluorohexyl iodide] (in DMSO); conditions: 2200 nM
Experimental: as §1

[4] = compound: FC(F)(F)C(F)(F)CNCC(F)(F)C(F)(F)F [Bis(1H,1H-perfluoropropyl)amine] (in DMSO); conditions: 2200 nM
Experimental: as §1

[5] = compound: FC(F)(F)COC(OCC(F)(F)F)OCC(F)(F)F [tris(Trifluoroethoxy)methane] (in DMSO); conditions: 2200 nM
Experimental: as §1

Hexafluoroglutaric acid = compound: O=C(O)C(F)(F)C(F)(F)C(F)(F)C(=O)O [Hexafluoroglutaric acid] (in DMSO)
Experimental: as §1

Perfluorohexanoic acid = compound: O=C(O)C(F)(F)C(F)(F)C(F)(F)C(F)(F)C(F)(F)F [Perfluorohexanoic acid] (in DMSO)
Experimental: as §1

[6] = compound: O=C(O)C(F)(F)C(F)(F)C(F)(F)OC(F)(C(F)(F)F)C(F)(F)F [Perfluoro-4-isopropoxybutanoic acid] (in DMSO); conditions: 2200 nM
Experimental: as §1

[7] = compound: O=C(O)C(F)(OC(F)(F)C(F)(F)C(F)(F)F)C(F)(F)F [Ammonium perfluoro-2-methyl-3-oxahexanoate] (in Water)
Experimental: as §1

[8] = compound: O=C(O)C(F)(OC(F)(F)C(F)(OC(F)(F)C(F)(OC(F)(F)C(F)(F)C(F)(F)F)C(F)(F)F)C(F)(F)F)C(F)(F)F [Perfluoro-(2,5,8-trimethyl-3,6,9-trioxadodecanoic)acid] (in DMSO); conditions: 370 nM
Experimental: as §1

[9] = compound: O=C(O)CCC(F)(F)C(F)(F)C(F)(F)F [3:3 Fluorotelomer carboxylic acid] (in DMSO); conditions: 2200 nM
Experimental: as §1

[10] = compound: O=S(=O)(O)C(F)(F)C(F)(F)C(F)(F)C(F)(F)F [Perfluorobutanesulfonic acid] (in DMSO)
Experimental: as §1

[11] = compound: OCC(F)(F)C(F)(F)C(F)(F)C(F)(F)C(F)(F)C(F)(F)CO [1H,1H,8H,8H-Perfluorooctane-1,8-diol] (in DMSO); conditions: 2200 nM
Experimental: as §1

[12] = compound: OCC(F)(F)C(F)(F)C(F)(F)C(F)(F)C(F)(F)C(F)(F)F [6:1 Fluorotelomer alcohol] (in DMSO); conditions: 2200 nM
Experimental: as §1

[13] = compound: OCC(F)(F)C(F)(F)C(F)(F)C(F)F [1H,1H,5H-Perfluoropentanol] (in DMSO); conditions: 2200 nM
Experimental: as §1

[14] = compound: OCC(F)(F)OC(F)(F)C(F)(F)OC(F)(F)CO [1H,1H,8H,8H-Perfluoro-3,6-dioxaoctane-1,8-diol] (in DMSO); conditions: 2200 nM
Experimental: as §1

[15] = compound: OCCCC(F)(F)C(F)(F)C(F)(F)C(F)(F)C(F)(F)C(F)(F)C(F)(F)C(F)(F)F [3-(Perfluorooctyl)propanol] (in DMSO); conditions: 2200 nM
Experimental: as §1

Test System	level (log10) [1]	level (log10) [2]	level (log10) [3]	level (log10) [4]	level (log10) [5]	level (log10) (Hexafluoroglutaric acid; 2200 nM)	level (log10) (Hexafluoroglutaric acid; 6700 nM)	level (log10) (Hexafluoroglutaric acid; 20000 nM)	level (log10) (Hexafluoroglutaric acid; 60000 nM)	level (log10) (Perfluorohexanoic acid; 2200 nM)	level (log10) (Perfluorohexanoic acid; 6700 nM)	level (log10) (Perfluorohexanoic acid; 20000 nM)	level (log10) (Perfluorohexanoic acid; 60000 nM)	level (log10) [6]	level (log10) ([7]; 2200 nM)	level (log10) ([7]; 6700 nM)	level (log10) ([7]; 20000 nM)	level (log10) ([7]; 60000 nM)	level (log10) [8]	level (log10) [9]	level (log10) ([10]; 2200 nM)	level (log10) ([10]; 6700 nM)	level (log10) ([10]; 20000 nM)	level (log10) ([10]; 60000 nM)	level (log10) [11]	level (log10) [12]	level (log10) [13]	level (log10) [14]	level (log10) [15]
LPS:CD62E/E-Selectin	0.008 ± 0.016	-0.0035 ± 0.042	0.0105 ± 0.028	0.011 ± 0.0028	-0.0065 ± 0.005	0.0065 ± 0.043	-0.003 ± 0.035	0.0045 ± 0.03	0.004 ± 0.033	-0.0075 ± 0.00071	-0.01 ± 0.0042	-0.0065 ± 0.012	-0.003 ± 0.0028	0.004 ± 0.045	0.017 ± 0.031	-0.0115 ± 0.0078	-0.005 ± 0.016	-0.004 ± 0.0085	-0.006 ± 0.0057	-0.007 ± 0.023	0.0245 ± 0.018	0.007 ± 0.0071	0.0255 ± 0.0092	0.028 ± 0.023	-0.034 ± 0.024	0.008 ± 0.0057	-0.0025 ± 0.0064	-0.013 ± 0.018	-0.0285 ± 0.012
LPS:CD69	-0.0645 ± 0.0064	-0.032 ± 0.0071	0.0025 ± 0.019	0.044 ± 0.02	-0.024 ± 0.064	-0.002 ± 0.034	-0.003 ± 0.011	-0.014 ± 0.0099	0.0075 ± 0.0021	0.01	0.0025 ± 0.0078	-0.0165 ± 0.0021	-0.0295 ± 0.013	0.0155 ± 0.037	0.008 ± 0.011	0.03 ± 0.0028	0 ± 0.028	-0.0315 ± 0.04	-0.0085 ± 0.0092	-0.0225 ± 0.056	0.039 ± 0.055	-0.0405 ± 0.061	0.0155 ± 0.05	0.0825 ± 0.023	0.0115 ± 0.00071	-0.008 ± 0.0042	0.01 ± 0.034	0.028 ± 0.042	-0.0015 ± 0.021
LPS:CD106/VCAM-1	0.011 ± 0.0071	0.0055 ± 0.018	-0.0085 ± 0.00071	-0.0105 ± 0.021	-0.0095 ± 0.029	-0.002 ± 0.027	-0.006 ± 0.016	-0.015 ± 0.024	-0.005 ± 0.0071	-0.0075 ± 0.00071	-0.0025 ± 0.0035	-0.0055 ± 0.0035	0.008 ± 0.0042	-0.004 ± 0.024	-0.018 ± 0.013	-0.0285 ± 0.016	-0.016 ± 0.0071	-0.0195 ± 0.011	-0.004 ± 0.0057	-0.008 ± 0.0057	0.01 ± 0.024	-0.0055 ± 0.012	0.0175 ± 0.011	0.03 ± 0.0014	0.0015 ± 0.0021	-0.0295 ± 0.00071	-0.003 ± 0.0071	0.002 ± 0.011	-0.0045 ± 0.018
LPS:CD141/Thrombomodulin	-0.0055 ± 0.0021	-0.01 ± 0.0014	0.02 ± 0.021	0.048 ± 0.093	-0.044 ± 0.017	-0.0185 ± 0.005	0.002 ± 0.0071	-0.022 ± 0.021	-0.0355 ± 0.032	0.0135 ± 0.0078	0.0085 ± 0.012	0.0065 ± 0.026	0.007 ± 0.017	0.005 ± 0.028	-0.0035 ± 0.0092	-0.013 ± 0.031	-0.0025 ± 0.0092	-0.036 ± 0.028	-0.005 ± 0.0057	-0.0095 ± 0.03	-0.02 ± 0.02	-0.048 ± 0.0085	-0.0045 ± 0.015	-0.024 ± 0.031	0.004 ± 0.0057	-0.002 ± 0.0071	-0.0215 ± 0.026	0.026 ± 0.0099	-0.0045 ± 0.025
